From patent publication US9943496B2, “Dietary supplement based on ethyl ferulate” (LABORATORIOS MINKAB, S. A. DE C. V., priority 2015, dated 2018)

What was measured:
[1] = Shelf life study of meat, CIE color parameters during refrigerated storage at 4° C.; design: species or system Bos taurus; conditions: 5 or 10 ppm/day FE; day 14 of storage at 4° C.; control lost about 9 units
heifers = assay: Sacrifice and evaluation of carcass quality of supplemented heifers; assay type: in vivo, Bos taurus; conditions: Longissimus dorsi
Method: Once the productive performance test was finished, the animals were sacrificed following the current regulations.
The pH was measured at 45 min and 24 h postmortem in the Longissimus dorsi (LD) at the 12th intercostal space using a portable digital potentiometer brand HANNA HI 99163 (Mettler-Toledo Process Analytical Inc., Wilmington, Mass., USA). The weight of the hot carcass was recorded, then the carcasses were cooled to 0° C. for 24 h.
At 24 h postmortem the weight of the cold carcass was measured. In at least 36 carcasses per treatment, area in cm^2 rib eye, the thickness of back fat in mm, was evaluated. The degree of marbling was also evaluated following USDA guidelines (2000): Trace (300-399), Light (400-499), Little (500-599), Modest (600-699), Moderate (700-799), Slightly abundant (800-899). These determinations were made in the LD muscle to level 12th intercostal space. Finally, the quality level of the channel according to USDA (2000) was estimated, based on the degree of marbling and carcass physiological maturity: Select − (400-449), Select + (450-499) Choice − (500-599), Choice medium (600-699), Choice + (700-799), Prime (800 or greater).
Productive performance data were analyzed by ANOVA with a design of a randomized complete block using the method of generalized linear models (GLM) using initial weight as a covariate; data carcass quality were analyzed under a completely randomized design blocks. The variance analysis (mixed models procedure), included as a fixed effect to experimental treatments and as a random effect the initial weight of animals for productive performance data and final weight for carcass quality. The study data shelf life was analyzed using analysis of variance of two ways, considering the fixed effects of treatment and storage time. When differences between treatments were detected in productive performance variables and carcass quality, comparisons of means were performed by orthogonal contrasts. The following contrasts were tested: Contrast 1: Control vs FE5+FE10; Contrast 2: FE5 vs FE10. For data quality meat in the study of oxidative stability, the comparison of means was by the Tukey test. All data were processed in the statistical package NCSS (NCSS Version 8.0, 2012).

With CCOC(=O)/C=C/c1ccc(O)c(OC)c1 [ethyl ferulate] as the molecule, how does the “Change of red color (Δa*) compared to baseline” value [1] read?
The value was “about 5.5 units”.

What about the “pH 45 min postmortem” value (heifers; FE5: 5 ppm/day) of the same molecule?
The value was 6.71 ± 0.1.

What about the “pH 24 h postmortem” value (heifers; FE5: 5 ppm/day) of the same molecule?
The value was 5.56 ± 0.2.

What about the “pH 45 min postmortem” value (heifers; FE10: 10 ppm/day) of the same molecule?
Its value is 6.72 ± 0.1.

What about the “pH 24 h postmortem” value (heifers; FE10: 10 ppm/day) of the same molecule?
The value was 5.52 ± 0.2.
